# Assay results reported in patent publication US20160046678A1 (ZYNGENIA, published 2016).
# By UniProt entry, the sequences of proteins in these tests, tags left out. Residues count along the entry.
# UniProt P21860, residues 20-643: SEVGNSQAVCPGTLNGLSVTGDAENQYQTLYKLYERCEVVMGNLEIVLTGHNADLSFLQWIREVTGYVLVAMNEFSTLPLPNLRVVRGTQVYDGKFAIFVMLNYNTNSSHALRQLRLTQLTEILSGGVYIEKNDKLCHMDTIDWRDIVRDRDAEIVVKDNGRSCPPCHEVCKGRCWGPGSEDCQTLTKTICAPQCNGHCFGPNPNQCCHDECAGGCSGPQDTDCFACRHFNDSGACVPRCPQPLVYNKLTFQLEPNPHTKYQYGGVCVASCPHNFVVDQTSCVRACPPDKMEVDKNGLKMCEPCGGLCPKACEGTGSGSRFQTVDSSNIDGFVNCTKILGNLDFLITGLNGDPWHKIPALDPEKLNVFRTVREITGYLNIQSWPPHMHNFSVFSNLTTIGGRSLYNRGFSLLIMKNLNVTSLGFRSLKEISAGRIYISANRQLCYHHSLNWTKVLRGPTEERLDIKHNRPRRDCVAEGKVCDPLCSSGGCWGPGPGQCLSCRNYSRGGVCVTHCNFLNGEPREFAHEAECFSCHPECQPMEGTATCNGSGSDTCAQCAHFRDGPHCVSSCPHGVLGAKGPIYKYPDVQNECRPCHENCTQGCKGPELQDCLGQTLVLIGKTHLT
# Results are given in words; binding and its absence hold for the method and conditions named. Some binding calls cover weakened binding; strength is not graded here.
# Target: ErbB3 (UniProt P21860)
# Assay: MRD screen, Example 48
row,Binder,binding
1,RYFYMCQVYPSERWQVCVGTS [EGC337],binds
2,SNLYLCQVYPSGKYHICIEAL [EGC453],binds
3,YSEPYCPFLNPTWKNECIARS [EGC465],binds
4,TSEPYCPFLNPIWKAECISRT [EGC466],binds
5,SYEPYCPFLNPTWKEQCIIRS [EGC467],binds
6,LNEPYCPFMNPNWKAECLARM [EGC468],binds
7,SKGPYCPFLNPIWKDECIARI [EGC469],binds
8,NSEPYCPFINPIWKAECIART [EGC470],binds
9,QSKPYCPFLNPTWKAQCIARS [EGC471],binds
10,TSTPYCPFLNPIWKAECLSRI [EGC472],binds
11,ISEPYCPFMNPTWKEQCLART [EGC474],binds
12,VNDPYCPFLNPTWKAECIART [EGC476],binds
13,SIEPYCPFLNPTWKAECLVRS [EGC488],binds
14,VSEPYCPFLNPVWKDQCLSRI [EGC489],binds
15,LPPPCYWTTWGKECQMFD [EGC490],binds
16,KTEPYCPFLNPTWKAECIART [EGC491],binds
17,TSDPYCPFVNPIWYNECIART [EGC492],binds
18,TGSPYCPFLNPTWKAHCIARL [EGC494],binds
19,ASEPYCPFLNPTWKDQCMARL [EGC500],binds
20,RSEPYCPFLNPTWKAQCIYRT [EGC501],binds
21,SIDPYCPFLNPTWLKECIARS [EGC502],binds
22,IGEPYCPFANPTWKQECIART [EGC508],binds
23,WSEPYCPFLNPAWKDQCLART [EGC511],binds
24,MREPYCPFLNPTWKDQCIAIR [EGC512],binds
25,YREPYCPFLNPIWKEQCIARS [EGC514],binds

row,Binder,binding
1,ISAPYCPFLNPIWKDECIART [EGC515],binds
2,LREPYCPFLNPIWNVECLARS [EGC516],binds
3,SSEPYCPFHNPTWKDQCLARS [EGC517],binds
4,DSEPYCPFLNPTWKDQCLARF [EGC518],binds
5,NSEPYCPFLNPSWKASCIARM [EGC519],binds
6,TSEPYCPFLNPIWKDQCIART [EGC522],binds
7,RSEPYCPFLNPIWKNECIARS [EGC523],binds
8,FSEPYCPFINPTWKAQCLARI [EGC524],binds
9,LNEPYCPFLNPIWKDECLART [EGC525],binds
10,SREIYCPFLNPIWLAECIARA [EGC526],binds
11,LTEPYCPFLNPTWKDQCLARR [EGC528],binds
12,SKDPYCPFVNPIWKHECIVRS [EGC529],binds
13,HSEPYCPFLNPIWKEQCMVRS [EGC532],binds
14,SSEPYCPFLNPTWKHECLLRT [EGC533],binds
15,ESEPYCPFTNPTWKAQCIARS [EGC534],binds
16,YNEPYCPFINPIWKAECIART [EGC535],binds
17,ISEPYCPFQNPTWKFQCLIRS [EGC536],binds
18,RSEPYCPFLNPTWKEQCIARQ [EGC538],binds
19,GRETYCPFLNPIWKAQCLART [EGC539],binds
20,KSEPYCPFLNPIWKDQCIVRS [EGC540],binds
21,VIEPYCPFLNPTWKDHCIART [EGC541],binds
22,MSDPYCPFQNPIWKAACIART [EGC542],binds
23,ESEPYCPFVNPIWKAECIARH [EGC544],binds
24,YNEPYCPFVNPTWKAACVART [EGC546],binds
